Assay results taken from article doi:10.1101/2025.03.09.642258.
Results are given in words; binding and its absence hold for the method and conditions named. In cells and extracts the contact can be indirect. A yes stands for co-enrichment or nearness to the bait. Other partners may have been found.

By UniProt entry, the sequences of proteins in these tests, tags left out.
UniProt O60506: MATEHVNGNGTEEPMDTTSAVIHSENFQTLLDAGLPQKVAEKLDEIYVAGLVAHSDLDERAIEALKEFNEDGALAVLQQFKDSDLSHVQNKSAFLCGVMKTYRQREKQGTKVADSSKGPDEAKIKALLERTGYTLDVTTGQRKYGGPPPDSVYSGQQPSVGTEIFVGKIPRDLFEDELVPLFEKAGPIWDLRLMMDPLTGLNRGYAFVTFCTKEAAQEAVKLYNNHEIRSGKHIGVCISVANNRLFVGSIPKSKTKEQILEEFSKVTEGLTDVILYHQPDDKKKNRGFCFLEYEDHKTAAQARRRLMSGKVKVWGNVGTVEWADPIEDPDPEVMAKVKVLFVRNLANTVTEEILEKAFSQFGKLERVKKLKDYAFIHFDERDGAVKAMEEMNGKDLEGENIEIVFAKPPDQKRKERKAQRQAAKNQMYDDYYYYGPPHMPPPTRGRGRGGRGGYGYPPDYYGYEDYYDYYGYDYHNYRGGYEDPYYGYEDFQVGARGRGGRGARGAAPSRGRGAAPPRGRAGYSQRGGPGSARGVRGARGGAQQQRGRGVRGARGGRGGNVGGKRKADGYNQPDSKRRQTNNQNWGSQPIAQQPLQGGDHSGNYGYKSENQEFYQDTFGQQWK
UniProt P67809: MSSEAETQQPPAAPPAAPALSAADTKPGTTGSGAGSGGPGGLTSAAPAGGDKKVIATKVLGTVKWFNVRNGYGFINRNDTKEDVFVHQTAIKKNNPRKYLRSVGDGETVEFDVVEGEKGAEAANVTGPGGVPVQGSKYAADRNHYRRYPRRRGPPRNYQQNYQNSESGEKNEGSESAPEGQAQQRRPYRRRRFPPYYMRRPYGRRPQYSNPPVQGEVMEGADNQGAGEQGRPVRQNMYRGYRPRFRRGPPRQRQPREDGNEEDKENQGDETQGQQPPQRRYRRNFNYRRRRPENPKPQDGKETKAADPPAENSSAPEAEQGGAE

Biological target: T1, Non-POU domain containing octamer binding (NONO) protein (human (endogenous in U2OS)) (UniProt Q15233)
T1 sequence: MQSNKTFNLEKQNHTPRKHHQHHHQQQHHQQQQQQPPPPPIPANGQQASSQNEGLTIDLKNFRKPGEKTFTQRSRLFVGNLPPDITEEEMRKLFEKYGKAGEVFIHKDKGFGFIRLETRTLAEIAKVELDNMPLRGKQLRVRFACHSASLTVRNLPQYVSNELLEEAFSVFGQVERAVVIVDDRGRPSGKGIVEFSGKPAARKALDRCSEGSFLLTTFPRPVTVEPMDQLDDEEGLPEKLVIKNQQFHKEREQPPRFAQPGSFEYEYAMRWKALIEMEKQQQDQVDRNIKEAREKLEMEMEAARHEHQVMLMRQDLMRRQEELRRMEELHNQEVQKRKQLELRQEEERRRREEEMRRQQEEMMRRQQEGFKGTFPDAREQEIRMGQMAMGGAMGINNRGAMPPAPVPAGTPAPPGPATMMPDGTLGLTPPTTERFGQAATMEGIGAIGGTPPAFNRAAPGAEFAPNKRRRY
Assay: affinity purification with mass spectrometry

binding | Substance
binds | SYNCRIP (from UniProt O60506 1-623)
binds | YBX1 (from UniProt P67809 1-324)
